Measurements: the supplement of paper PMC10849652
Some of the results follow.

Protein sequences, listed by entry. Tags and fused reporters are not part of them. Lines headed by an entry give the natural chain unless they say otherwise; changes in a name come on top.
UniProt Q9P287, whole entry, looked up: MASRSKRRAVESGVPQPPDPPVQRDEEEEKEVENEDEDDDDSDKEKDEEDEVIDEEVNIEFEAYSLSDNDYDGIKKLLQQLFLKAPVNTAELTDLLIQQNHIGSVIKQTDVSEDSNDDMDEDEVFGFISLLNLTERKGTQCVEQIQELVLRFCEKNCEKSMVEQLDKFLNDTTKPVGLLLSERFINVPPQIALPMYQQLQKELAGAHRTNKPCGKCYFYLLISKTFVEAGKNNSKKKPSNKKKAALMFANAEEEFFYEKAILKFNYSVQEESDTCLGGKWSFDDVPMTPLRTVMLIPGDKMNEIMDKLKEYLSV
UniProt P30043: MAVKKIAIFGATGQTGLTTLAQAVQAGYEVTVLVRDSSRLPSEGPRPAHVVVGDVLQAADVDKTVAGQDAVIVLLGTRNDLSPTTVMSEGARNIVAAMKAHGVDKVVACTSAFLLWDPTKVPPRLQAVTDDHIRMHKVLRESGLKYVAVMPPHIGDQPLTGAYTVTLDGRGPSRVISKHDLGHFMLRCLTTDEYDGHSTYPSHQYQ
UniProt Q9Y679: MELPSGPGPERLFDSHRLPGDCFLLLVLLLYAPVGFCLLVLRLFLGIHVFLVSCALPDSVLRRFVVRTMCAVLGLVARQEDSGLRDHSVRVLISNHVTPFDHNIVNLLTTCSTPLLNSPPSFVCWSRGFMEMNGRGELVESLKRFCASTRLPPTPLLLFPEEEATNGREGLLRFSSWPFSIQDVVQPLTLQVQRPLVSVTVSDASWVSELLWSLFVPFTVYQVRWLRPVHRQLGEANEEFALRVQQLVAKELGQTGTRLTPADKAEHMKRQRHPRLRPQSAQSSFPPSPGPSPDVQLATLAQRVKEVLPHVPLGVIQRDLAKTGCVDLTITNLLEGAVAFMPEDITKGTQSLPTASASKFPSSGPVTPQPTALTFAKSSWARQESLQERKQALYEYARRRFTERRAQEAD
UniProt O75934: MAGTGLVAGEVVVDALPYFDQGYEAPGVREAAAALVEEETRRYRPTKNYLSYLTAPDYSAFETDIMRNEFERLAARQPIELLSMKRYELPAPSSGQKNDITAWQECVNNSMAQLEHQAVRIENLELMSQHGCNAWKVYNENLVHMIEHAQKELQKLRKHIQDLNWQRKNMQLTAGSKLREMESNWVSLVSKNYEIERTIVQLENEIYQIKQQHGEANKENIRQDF
UniProt Q14692: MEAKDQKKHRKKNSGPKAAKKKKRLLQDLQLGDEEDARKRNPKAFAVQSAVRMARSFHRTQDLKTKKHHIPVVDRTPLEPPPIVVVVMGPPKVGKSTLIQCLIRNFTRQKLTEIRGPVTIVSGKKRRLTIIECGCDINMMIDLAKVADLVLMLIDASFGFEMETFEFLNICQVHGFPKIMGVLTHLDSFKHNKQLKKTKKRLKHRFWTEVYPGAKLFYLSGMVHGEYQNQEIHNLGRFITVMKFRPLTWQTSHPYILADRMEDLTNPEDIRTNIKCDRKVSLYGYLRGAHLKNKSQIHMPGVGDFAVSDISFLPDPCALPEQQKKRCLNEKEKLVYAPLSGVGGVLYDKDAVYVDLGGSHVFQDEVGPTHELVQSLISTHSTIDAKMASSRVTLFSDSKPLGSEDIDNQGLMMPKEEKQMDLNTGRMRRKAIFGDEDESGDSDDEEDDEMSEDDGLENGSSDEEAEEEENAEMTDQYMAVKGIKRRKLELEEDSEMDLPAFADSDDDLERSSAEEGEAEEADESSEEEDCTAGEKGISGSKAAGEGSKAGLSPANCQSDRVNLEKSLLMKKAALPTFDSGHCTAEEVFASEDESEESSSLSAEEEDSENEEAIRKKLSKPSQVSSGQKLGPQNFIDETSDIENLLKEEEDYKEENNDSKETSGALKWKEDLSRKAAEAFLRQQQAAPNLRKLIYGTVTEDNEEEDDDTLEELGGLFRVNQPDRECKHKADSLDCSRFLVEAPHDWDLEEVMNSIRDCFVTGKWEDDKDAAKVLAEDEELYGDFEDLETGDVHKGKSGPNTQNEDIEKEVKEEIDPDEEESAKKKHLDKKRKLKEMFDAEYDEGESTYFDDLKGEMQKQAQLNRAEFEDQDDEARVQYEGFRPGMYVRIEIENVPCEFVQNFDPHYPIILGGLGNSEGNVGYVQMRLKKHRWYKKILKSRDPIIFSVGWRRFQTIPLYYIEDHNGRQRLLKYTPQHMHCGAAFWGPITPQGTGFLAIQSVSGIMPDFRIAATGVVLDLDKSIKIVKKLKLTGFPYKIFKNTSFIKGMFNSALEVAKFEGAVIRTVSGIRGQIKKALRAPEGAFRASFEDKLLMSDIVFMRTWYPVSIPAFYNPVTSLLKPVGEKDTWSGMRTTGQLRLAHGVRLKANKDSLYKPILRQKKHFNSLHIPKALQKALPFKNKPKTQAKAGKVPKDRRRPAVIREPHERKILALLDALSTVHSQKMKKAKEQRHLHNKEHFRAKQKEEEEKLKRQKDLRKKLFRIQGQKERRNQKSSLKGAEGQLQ
UniProt P54687: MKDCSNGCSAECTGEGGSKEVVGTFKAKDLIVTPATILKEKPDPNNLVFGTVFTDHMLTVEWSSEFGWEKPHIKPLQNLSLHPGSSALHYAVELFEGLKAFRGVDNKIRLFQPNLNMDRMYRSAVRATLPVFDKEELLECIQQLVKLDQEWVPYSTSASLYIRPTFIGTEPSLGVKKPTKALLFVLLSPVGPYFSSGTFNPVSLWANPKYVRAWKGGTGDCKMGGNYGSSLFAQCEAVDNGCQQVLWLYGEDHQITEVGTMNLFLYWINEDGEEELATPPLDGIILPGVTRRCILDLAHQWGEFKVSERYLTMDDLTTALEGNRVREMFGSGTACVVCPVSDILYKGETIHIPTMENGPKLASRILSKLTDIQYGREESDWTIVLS
UniProt Q9UBB4: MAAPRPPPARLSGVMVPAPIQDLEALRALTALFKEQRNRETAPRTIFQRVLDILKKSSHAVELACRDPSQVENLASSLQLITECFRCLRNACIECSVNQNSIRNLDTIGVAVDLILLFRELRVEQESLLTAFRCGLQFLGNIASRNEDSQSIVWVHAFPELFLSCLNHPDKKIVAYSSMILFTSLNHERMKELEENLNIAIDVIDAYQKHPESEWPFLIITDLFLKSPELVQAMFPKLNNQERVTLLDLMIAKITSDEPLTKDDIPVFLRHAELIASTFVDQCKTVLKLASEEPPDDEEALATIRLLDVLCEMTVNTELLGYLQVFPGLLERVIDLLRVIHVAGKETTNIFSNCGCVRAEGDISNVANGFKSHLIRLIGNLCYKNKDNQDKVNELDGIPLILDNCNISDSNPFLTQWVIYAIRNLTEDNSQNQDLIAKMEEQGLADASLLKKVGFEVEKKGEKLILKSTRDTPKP
UniProt Q96GX2: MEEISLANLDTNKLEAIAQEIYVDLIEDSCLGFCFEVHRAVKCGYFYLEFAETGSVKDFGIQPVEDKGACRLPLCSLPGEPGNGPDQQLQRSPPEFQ
UniProt P46379: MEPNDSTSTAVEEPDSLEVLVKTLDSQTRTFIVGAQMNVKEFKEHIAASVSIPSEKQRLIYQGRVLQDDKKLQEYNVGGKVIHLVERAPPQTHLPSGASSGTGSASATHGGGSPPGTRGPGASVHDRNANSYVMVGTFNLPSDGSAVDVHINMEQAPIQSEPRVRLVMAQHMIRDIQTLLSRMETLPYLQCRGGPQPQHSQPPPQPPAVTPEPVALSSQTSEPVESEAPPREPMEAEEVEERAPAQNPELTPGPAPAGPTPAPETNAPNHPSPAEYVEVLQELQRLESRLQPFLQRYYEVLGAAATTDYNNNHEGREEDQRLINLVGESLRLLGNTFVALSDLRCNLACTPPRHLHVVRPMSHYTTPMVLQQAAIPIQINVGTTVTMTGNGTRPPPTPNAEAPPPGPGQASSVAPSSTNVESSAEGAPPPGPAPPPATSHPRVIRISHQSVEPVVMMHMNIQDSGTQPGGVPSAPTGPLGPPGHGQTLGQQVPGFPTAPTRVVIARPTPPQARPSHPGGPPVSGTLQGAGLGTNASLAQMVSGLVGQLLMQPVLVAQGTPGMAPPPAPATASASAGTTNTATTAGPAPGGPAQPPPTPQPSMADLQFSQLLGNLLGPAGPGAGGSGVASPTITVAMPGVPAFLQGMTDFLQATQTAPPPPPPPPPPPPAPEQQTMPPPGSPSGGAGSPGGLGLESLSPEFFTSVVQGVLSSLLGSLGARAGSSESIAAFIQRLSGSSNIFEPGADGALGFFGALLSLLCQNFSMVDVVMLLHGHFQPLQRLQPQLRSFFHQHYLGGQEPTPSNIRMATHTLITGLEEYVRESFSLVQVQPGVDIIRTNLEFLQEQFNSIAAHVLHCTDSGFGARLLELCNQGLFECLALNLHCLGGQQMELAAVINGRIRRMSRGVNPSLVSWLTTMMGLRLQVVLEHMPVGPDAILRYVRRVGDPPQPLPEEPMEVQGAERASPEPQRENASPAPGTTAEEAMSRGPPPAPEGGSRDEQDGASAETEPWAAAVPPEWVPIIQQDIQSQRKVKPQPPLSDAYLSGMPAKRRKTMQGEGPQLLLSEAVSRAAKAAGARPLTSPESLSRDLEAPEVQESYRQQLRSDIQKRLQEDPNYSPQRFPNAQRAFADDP
UniProt O15382: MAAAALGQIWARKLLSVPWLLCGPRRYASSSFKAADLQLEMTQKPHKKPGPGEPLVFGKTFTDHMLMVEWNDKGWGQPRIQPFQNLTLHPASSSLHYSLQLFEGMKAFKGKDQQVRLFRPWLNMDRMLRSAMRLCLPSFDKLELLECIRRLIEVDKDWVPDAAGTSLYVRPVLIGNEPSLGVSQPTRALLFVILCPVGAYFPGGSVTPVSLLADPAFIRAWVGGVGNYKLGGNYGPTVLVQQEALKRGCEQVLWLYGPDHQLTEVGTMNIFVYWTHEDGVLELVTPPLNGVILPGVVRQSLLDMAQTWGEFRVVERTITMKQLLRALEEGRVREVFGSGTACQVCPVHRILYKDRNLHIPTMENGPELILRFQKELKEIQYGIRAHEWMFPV
UniProt Q5VW32: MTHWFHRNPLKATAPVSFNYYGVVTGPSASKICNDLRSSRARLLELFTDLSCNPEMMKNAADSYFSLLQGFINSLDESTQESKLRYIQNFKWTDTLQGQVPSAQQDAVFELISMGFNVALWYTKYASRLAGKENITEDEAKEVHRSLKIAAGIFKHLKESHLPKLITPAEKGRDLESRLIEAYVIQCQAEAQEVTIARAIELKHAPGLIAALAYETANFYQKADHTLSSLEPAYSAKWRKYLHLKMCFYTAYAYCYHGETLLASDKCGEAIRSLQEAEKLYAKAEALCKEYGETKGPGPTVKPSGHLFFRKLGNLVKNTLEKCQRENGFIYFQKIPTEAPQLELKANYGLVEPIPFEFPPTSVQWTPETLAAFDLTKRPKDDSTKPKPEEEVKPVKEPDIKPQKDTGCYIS
UniProt O75531: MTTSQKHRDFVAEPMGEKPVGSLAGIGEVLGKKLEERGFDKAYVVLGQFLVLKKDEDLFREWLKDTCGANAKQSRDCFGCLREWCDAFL
UniProt Q8WXE1: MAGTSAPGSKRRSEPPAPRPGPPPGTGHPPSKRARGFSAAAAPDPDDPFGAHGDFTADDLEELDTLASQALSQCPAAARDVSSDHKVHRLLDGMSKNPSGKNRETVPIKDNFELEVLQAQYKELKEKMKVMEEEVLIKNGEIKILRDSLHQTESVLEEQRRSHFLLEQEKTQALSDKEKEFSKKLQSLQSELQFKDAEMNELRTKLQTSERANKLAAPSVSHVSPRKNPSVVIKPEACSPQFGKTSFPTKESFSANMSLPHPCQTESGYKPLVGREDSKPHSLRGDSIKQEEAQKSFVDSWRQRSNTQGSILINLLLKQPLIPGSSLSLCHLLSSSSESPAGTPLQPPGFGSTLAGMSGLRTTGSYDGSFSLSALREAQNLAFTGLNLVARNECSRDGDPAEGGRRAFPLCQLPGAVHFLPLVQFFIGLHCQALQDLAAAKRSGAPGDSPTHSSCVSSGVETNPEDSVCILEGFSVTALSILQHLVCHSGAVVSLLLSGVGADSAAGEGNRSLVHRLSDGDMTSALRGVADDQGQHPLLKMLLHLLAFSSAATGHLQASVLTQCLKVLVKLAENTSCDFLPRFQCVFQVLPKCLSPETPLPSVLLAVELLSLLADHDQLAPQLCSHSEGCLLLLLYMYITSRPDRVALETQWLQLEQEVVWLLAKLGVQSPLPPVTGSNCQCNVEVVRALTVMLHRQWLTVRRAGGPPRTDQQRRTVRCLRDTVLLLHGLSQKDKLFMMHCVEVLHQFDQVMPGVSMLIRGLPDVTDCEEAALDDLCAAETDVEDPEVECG
UniProt Q9NUP1: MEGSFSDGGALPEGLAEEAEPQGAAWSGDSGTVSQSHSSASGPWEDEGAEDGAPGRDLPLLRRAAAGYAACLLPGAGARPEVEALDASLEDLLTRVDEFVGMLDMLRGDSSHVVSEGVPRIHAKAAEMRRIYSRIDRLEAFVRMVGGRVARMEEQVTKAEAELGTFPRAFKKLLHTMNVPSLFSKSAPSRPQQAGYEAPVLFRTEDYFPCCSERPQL

Experiments:
Assay in all cases: log2 fold change, soluble protein after heating vs DMSO (PISA); higher = thermal stabilisation; K562 cells, 10 uM, 30 min; active = over 0.2 and 3.5 SD of the protein, either way, in both replicates (recomputed)
[1] = compound: Cc1ccc(NC(=O)c2ccc(CN3CC[C@H](N(C)C)C3)c(C(F)(F)F)c2)cc1Nc1nccc(-c2cncnc2)n1 [bafetinib]
Procedure, shortened: (§1)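 K562 cells at 2×10^6 cells/mL were treated with 10 μM compound for 30 min. Aliquots were heated for 3 min across 48°C-58°C, pooled, and extracted in PBS with 0.5% NP-40 at 4°C; soluble protein was the supernatant after 21,000xg for 90 min. Soluble protein was quantified by TMTpro 16plex LC-MS/MS with channel sums equalised, and reported as log2 fold change in thermal stability against DMSO controls, with values from duplicates.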

[2] = compound: Cc1cccc(CC(=O)N2CCc3c2ccc(-c2cn(C)c4ncnc(N)c24)c3F)n1
Procedure, shortened: as §1

[3] = compound: Cc1cn(-c2cc(NC(=O)c3ccc(C)c(Nc4nccc(-c5cccnc5)n4)c3)cc(C(F)(F)F)c2)cn1 [nilotinib]
Procedure, shortened: as §1

[4] = compound: Cc1nc(Nc2n[nH]c3c2CN(C(=O)N[C@H](CN(C)C)c2ccccc2)C3(C)C)c2sccc2n1
Procedure, shortened: as §1

[5] = compound: Cc1nc(Nc2ncc(C(=O)Nc3c(C)cccc3Cl)s2)cc(N2CCN(CCO)CC2)n1 [dasatinib]
Procedure, shortened: as §1

[6] = compound: Cc1ncc(-c2ccnc(Nc3ccc(S(C)(=O)=O)cc3)n2)n1C(C)C
Procedure, shortened: as §1

[7] = compound: Cn1cc(-c2ccc3c(c2)CCN3C(=O)Cc2cccc(C(F)(F)F)c2)c2c(N)ncnc21
Procedure, shortened: as §1

[8] = compound: Cn1cc(-c2ccc3nnc(C(F)(F)c4ccc5ncccc5c4)n3n2)cn1
Procedure, shortened: as §1

[9] = compound: Cn1cncc1[C@@](N)(c1ccc(Cl)cc1)c1ccc2c(c1)c(-c1cccc(Cl)c1)cc(=O)n2C [tipifarnib]
Procedure, shortened: as §1

[10] = compound: FC(F)(F)c1ccc(/C=C/c2nc(COc3ccc(CCCCn4ccnn4)cc3)co2)cc1 [mubritinib]
Procedure, shortened: as §1

Measured: log2 fold change

BCCIP (UniProt Q9P287)
inactive: [1] 0.048 | [2] 0 | [3] -0.019 | [4] -0.022 | [5] -0.161 | [6] 0.03 | [7] -0.009 | [8] -0.006 | [9] 0.006 | [10] 0.001

BNIP2 (UniProt J3KN59)
inactive: [1] -0.232 | [2] 0.027 | [3] -0.006 | [4] -0.004 | [5] -0.005 | [6] 0.022 | [7] 0.017 | [8] 0.001 | [9] 0.038 | [10] 0.063

BLVRB (UniProt P30043)
inactive: [1] 0.014 | [2] 0.05 | [3] 0.021 | [4] -0.109 | [5] -0.064 | [6] 0.029 | [7] 0.032 | [8] 0.074 | [9] -0.021 | [10] -0.097

AUP1 (UniProt Q9Y679)
inactive: [1] -0.023 | [2] 0.11 | [3] -0.102 | [4] -0.055 | [5] -0.097 | [6] 0.018 | [7] 0.01 | [8] -0.03 | [9] -0.106 | [10] 0.033

BCAS2 (UniProt O75934)
inactive: [1] -0.071 | [2] -0.048 | [3] -0.001 | [4] 0.033 | [5] -0.032 | [6] 0.048 | [7] -0.014 | [8] 0 | [9] 0.076 | [10] 0.011

BABAM2 (UniProt Q9NXR7)
inactive: [1] 0.008 | [2] -0.009 | [3] 0.022 | [4] -0.014 | [5] 0.052 | [6] 0.039 | [7] 0.015 | [8] -0.01 | [9] 0.071 | [10] 0.021

BOD1L1 (UniProt Q8NFC6)
inactive: [1] 0.06 | [2] -0.009 | [3] 0.043 | [4] -0.076 | [5] 0.063 | [6] -0.009 | [7] -0.052 | [8] -0.016 | [9] 0.041 | [10] -0.016

BMS1 (UniProt Q14692)
inactive: [1] 0.248 | [2] 0.006 | [3] -0.087 | [4] 0.051 | [5] 0.028 | [6] 0.042 | [7] -0.255 | [8] -0.092 | [9] 0.122 | [10] -0.144

BCAT1 (UniProt P54687)
inactive: [1] 0.006 | [2] -0.012 | [3] -0.025 | [4] 0.002 | [5] 0.021 | [6] -0.032 | [7] 0.023 | [8] 0.034 | [9] -0.017 | [10] 0.029

BCL2L13 (UniProt Q9BXK5)
inactive: [1] -0.067 | [2] 0.002 | [3] -0.007 | [4] -0.025 | [5] -0.007 | [6] 0.006 | [7] 0.01 | [8] 0.027 | [9] 0.041 | [10] 0.046

B4GALT1 (UniProt P15291)
inactive: [1] -0.062 | [2] 0.009 | [3] 0.066 | [4] -0.025 | [5] -0.083 | [6] 0.021 | [7] -0.005 | [8] 0.04 | [9] 0.153 | [10] 0.029

BICD2 isoform 2 (UniProt Q8TD16)
inactive: [1] -0.037 | [2] -0.005 | [3] -0.021 | [4] -0.07 | [5] -0.187 | [6] 0.041 | [7] 0.004 | [8] 0.011 | [9] -0.015 | [10] 0.009

BICD1 (UniProt Q96G01)
inactive: [1] 0.059 | [2] -0.031 | [3] 0.075 | [4] -0.057 | [5] -0.132 | [6] 0.044 | [7] 0.057 | [8] 0.16 | [9] -0.048 | [10] 0.039

ATXN10 (UniProt Q9UBB4)
inactive: [1] -0.043 | [2] 0.067 | [3] -0.059 | [4] 0.001 | [5] 0.02 | [6] -0.035 | [7] 0.025 | [8] 0.02 | [9] -0.005 | [10] 0.07

BAIAP2 (UniProt Q9UQB8)
inactive: [1] -0.009 | [2] 0.032 | [3] -0.061 | [4] -0.05 | [5] -0.066 | [6] -0.038 | [7] 0.03 | [8] -0.032 | [9] -0.035 | [10] 0.06

ATXN7L3B (UniProt Q96GX2)
inactive: [1] 0.017 | [2] -0.044 | [3] 0.025 | [4] 0.029 | [5] 0.029 | [6] -0.044 | [7] 0.12 | [8] 0.046 | [9] 0.08 | [10] 0.042

BAG6 isoform 3 (UniProt P46379)
inactive: [1] -0.029 | [2] 0.026 | [3] -0.03 | [4] 0.007 | [5] -0.061 | [6] 0.016 | [7] -0.044 | [8] -0.011 | [9] -0.066 | [10] -0.007

BCAT2 (UniProt O15382)
inactive: [1] -0.034 | [2] -0.068 | [3] 0.016 | [4] -0.024 | [5] 0.055 | [6] -0.015 | [7] -0.005 | [8] 0.007 | [9] 0.029 | [10] 0.02

BCCIP isoform 2 (UniProt Q9P287)
inactive: [1] 0.014 | [2] 0.021 | [3] -0.046 | [4] -0.029 | [5] -0.071 | [6] 0.017 | [7] -0.064 | [8] -0.007 | [9] -0.015 | [10] -0.023

BROX (UniProt Q5VW32)
inactive: [1] 0.048 | [2] -0.037 | [3] -0.041 | [4] -0.034 | [5] -0.12 | [6] 0.045 | [7] -0.002 | [8] 0.023 | [9] -0.098 | [10] -0.034

BCS1L (UniProt Q9Y276)
inactive: [1] -0.064 | [2] -0.026 | [3] -0.027 | [4] 0.028 | [5] 0.028 | [6] -0.007 | [7] 0.05 | [8] 0.025 | [9] 0.023 | [10] 0.051

BANF1 (UniProt O75531)
inactive: [1] -0.09 | [2] -0.036 | [3] -0.012 | [4] 0.137 | [5] 0.072 | [6] 0.005 | [7] 0.072 | [8] 0.225 | [9] 0.066 | [10] -0.016

ATRIP (UniProt Q8WXE1)
inactive: [1] 0.032 | [2] 0.045 | [3] -0.09 | [4] 0.021 | [5] 0.033 | [6] -0.058 | [7] -0.035 | [8] 0.158 | [9] -0.025 | [10] 0.033

Random excerpt: 2 entries already listed.
ATRIP (UniProt Q8WXE1)
inactive: [1] 0.032 | [2] 0.045 | [3] -0.09 | [4] 0.021 | [5] 0.033 | [6] -0.058 | [7] -0.035 | [8] 0.158 | [9] -0.025 | [10] 0.033

BROX (UniProt Q5VW32)
inactive: [1] 0.048 | [2] -0.037 | [3] -0.041 | [4] -0.034 | [5] -0.12 | [6] 0.045 | [7] -0.002 | [8] 0.023 | [9] -0.098 | [10] -0.034

Additional results:

BCAP31 isoform 2 (UniProt P51572)
inactive: [1] -0.045 | [2] -0.026 | [3] 0.002 | [4] 0.005 | [5] 0.058 | [6] -0.022 | [7] -0.002 | [8] -0.017 | [9] 0.071 | [10] 0.005

BORCS5 (UniProt Q969J3)
inactive: [1] -0.065 | [2] 0.051 | [3] -0.033 | [4] -0.018 | [5] 0.035 | [6] 0.029 | [7] 0.066 | [8] 0.073 | [9] 0.047 | [10] 0.04

BCKDHB (UniProt P21953)
inactive: [1] -0.012 | [2] -0.062 | [3] 0.134 | [4] 0.118 | [5] -0.071 | [6] -0.041 | [7] 0.137 | [8] 0.032 | [9] 0.012 | [10] 0.09

BLOC1S4 (UniProt Q9NUP1)
inactive: [1] -0.029 | [2] -0.028 | [3] -0.012 | [4] -0.01 | [5] -0.048 | [6] -0.014 | [7] 0.016 | [8] 0.109 | [9] -0.017 | [10] -0.018
